Measurements published in paper PMC4516353.
No constants are given. Whether binding was seen depends on the method and setting. In cells and extracts the contact can be indirect. Some entries that bind do so weakly or less than the wild type. Sequences can lack the tags named with a protein. Each block holds one binder with its values, some of them ahead of it.

What was measured:
[1] = biological target: T1, E2Tag-WBSCR22 (stably expressed in U2OS cells) (human) (UniProt O43709); experiment: co-IP; U2OS and U2OS-E2Tag-WBSCR22 cell lysates, immunoprecipitation with antibody against E2Tag, immunoblot with antibodies against WBSCR22, TRMT112 and C1QBP
T1 sequence: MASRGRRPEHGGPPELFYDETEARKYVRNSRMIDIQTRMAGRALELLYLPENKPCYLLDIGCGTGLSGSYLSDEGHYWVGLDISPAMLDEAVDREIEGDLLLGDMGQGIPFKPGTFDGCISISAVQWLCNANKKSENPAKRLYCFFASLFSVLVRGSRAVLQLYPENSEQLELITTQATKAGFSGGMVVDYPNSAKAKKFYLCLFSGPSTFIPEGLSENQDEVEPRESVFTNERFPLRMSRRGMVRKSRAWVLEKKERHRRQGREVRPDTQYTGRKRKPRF

[2] = biological target: T2, E2Tag-WBSCR22 (transiently expressed in HeLa cells) (human) (UniProt O43709); experiment: co-IP; HeLa cells electroporated with 1000 ng of pQM plasmids, collected 24 h later; immunoprecipitation with anti-E2Tag antibody 5E11; immunoblot for WBSCR22 and TRMT112
T2 sequence: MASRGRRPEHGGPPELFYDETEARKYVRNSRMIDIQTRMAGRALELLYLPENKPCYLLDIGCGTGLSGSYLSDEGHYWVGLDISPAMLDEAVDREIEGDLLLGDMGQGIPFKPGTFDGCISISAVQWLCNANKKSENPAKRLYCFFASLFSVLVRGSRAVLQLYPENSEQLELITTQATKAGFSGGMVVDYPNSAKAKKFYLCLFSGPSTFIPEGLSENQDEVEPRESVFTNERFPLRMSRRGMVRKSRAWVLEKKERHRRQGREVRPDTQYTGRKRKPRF

TRMT112-E2Tag (human) = biological target: T3, TRMT112-E2Tag (human) (UniProt Q9UI30); experiment: as above
T3 sequence: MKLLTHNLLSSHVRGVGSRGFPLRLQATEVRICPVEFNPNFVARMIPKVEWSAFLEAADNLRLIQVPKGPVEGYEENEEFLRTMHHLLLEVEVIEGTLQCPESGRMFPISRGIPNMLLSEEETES

binding [1]: binds
B1: TRMT112 (endogenous, U2OS cells) (protein, UniProt Q9UI30 1-125)
chain: MKLLTHNLLSSHVRGVGSRGFPLRLQATEVRICPVEFNPNFVARMIPKVEWSAFLEAADNLRLIQVPKGPVEGYEENEEFLRTMHHLLLEVEVIEGTLQCPESGRMFPISRGIPNMLLSEEETES

binding [2]: binds
B2: TRMT112 (endogenous, HeLa cells) (protein, UniProt Q9UI30 1-125)
chain: MKLLTHNLLSSHVRGVGSRGFPLRLQATEVRICPVEFNPNFVARMIPKVEWSAFLEAADNLRLIQVPKGPVEGYEENEEFLRTMHHLLLEVEVIEGTLQCPESGRMFPISRGIPNMLLSEEETES

binding (TRMT112-E2Tag (human)): binds
B3: WBSCR22 (endogenous, HeLa cells) (protein, UniProt O43709 1-281)
chain: MASRGRRPEHGGPPELFYDETEARKYVRNSRMIDIQTRMAGRALELLYLPENKPCYLLDIGCGTGLSGSYLSDEGHYWVGLDISPAMLDEAVDREIEGDLLLGDMGQGIPFKPGTFDGCISISAVQWLCNANKKSENPAKRLYCFFASLFSVLVRGSRAVLQLYPENSEQLELITTQATKAGFSGGMVVDYPNSAKAKKFYLCLFSGPSTFIPEGLSENQDEVEPRESVFTNERFPLRMSRRGMVRKSRAWVLEKKERHRRQGREVRPDTQYTGRKRKPRF
